Reference: PubChem BioAssay AID250 (DTP/NCI, 2004)
The list is a part of this screen's results and no random one: it gathers tests that were run many times, whatever their T/C, doses with no T/C, and many T/C values between a quarter and a half above the control. Further doses and runs are listed elsewhere. T/C: endpoint of the treated group in % of that of the vehicle group. Some entries give survivors of the animals treated and no T/C: the source holds a T/C of zero for them, seemingly a mark for toxic or unscored doses. Some doses without a T/C left all or most animals alive at the check, yet need not have been tolerated: the source hardly ever lists a survival T/C far under the control, and the zero likely stands for such cases as well. For part of these data: Counts of survivors are from the toxicity check (mostly the fifth day) where no day follows; animals may have died later. Schedule codes are those of the source, taken here to give the interval after Q, in days (D) or hours (H), and the number of doses after X. Some schedules carry Z or #; the key to these is not given. Some doses were run more than once; their values stand side by side, smallest first. For survival time, this PubChem deposit counts one and a half times the control or more as active, and values a quarter to a half above the control carry no call in these data; other NCI protocols may use other cut-offs. Some T/C values are followed by the survivors on the day toxicity was checked, most often the fifth; where none is given, no animal had died by that day.

How the values were obtained:
[1] = test system: BDF1 mice, L1210 leukemia sc, survival T/C; experiment: NCI In Vivo Anticancer Drug Screen. Data for tumor model L1210 Leukemia (subcutaneous) in B6D2F1 (BDF1) mice; settings: T/C endpoint: median survival time, higher T/C = longer survival
Procedure, shortened: (§1)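 Mice carrying transplanted tumors received test compounds, and survival or tumor size was measured. Values are the treated-group measurement (T) divided by that of the vehicle-treated control group (C).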

[2] = test system: BDF1 mice, L1210 leukemia sc; experiment: as above; settings: T/C endpoint: median survival time, higher T/C = longer survival
Procedure, shortened: as §1

[3] = dose: 65.0 mg/kg/injection, schedule: Q01DX Z (sc), vehicle: saline

## CC[C@]1(O)C[C@H]2CN(CCc3c([nH]c4ccccc34)[C@@](C(=O)OC)(c3cc4c(cc3OC)N(C=O)[C@H]3[C@@](O)(C(=O)OC)[C@H](OC(C)=O)[C@]5(CC)C=CCN6CC[C@]43[C@@H]65)C2)C1
[1]; dose: 0.25 mg/kg/injection, schedule: Q01DX009 (sc), vehicle: water, evaluated on day 7
  T/C: 107 and 109 % of control
[1]; dose: 0.25 mg/kg/injection, schedule: Q01DX009 (sc), vehicle: water, evaluated on day 18
  T/C: 105 % of control
[1]; dose: 0.25 mg/kg/injection, schedule: Q01DX009 (sc), vehicle: water, evaluated on day 19
  T/C: 112 % of control
[1]; dose: 0.5 mg/kg/injection, schedule: Q01DX009 (sc), vehicle: water, evaluated on day 7
  T/C: 115 and 122 % of control
[1]; dose: 0.5 mg/kg/injection, schedule: Q01DX009 (sc), vehicle: water, evaluated on day 18
  T/C: 122 % of control
[1]; dose: 0.5 mg/kg/injection, schedule: Q01DX009 (sc), vehicle: water, evaluated on day 19
  T/C: 118 % of control
[1]; dose: 1.0 mg/kg/injection, schedule: Q01DX009 (sc), vehicle: water, evaluated on day 7
  T/C: 100 and 119 % of control
[1]; dose: 1.0 mg/kg/injection, schedule: Q01DX009 (sc), vehicle: water, evaluated on day 18
  T/C: 94 % of control [6 of 8 alive]
[1]; dose: 2.0 mg/kg/injection, schedule: Q01DX009 (sc), vehicle: water, evaluated on day 7
  T/C: 81 and 111 % of control
[1]; dose: 2.0 mg/kg/injection, schedule: Q01DX009 (sc), vehicle: water, evaluated on day 19
  T/C: 112 % of control
[1]; dose: 2.0 mg/kg/injection, schedule: Q01DX009 (sc), vehicle: water
  survivor count: 2 of 8
[1]; dose: 4.0 mg/kg/injection, schedule: Q01DX009 (sc), vehicle: water, evaluated on day 7
  T/C: 78 and 111 % of control
[1]; dose: 4.0 mg/kg/injection, schedule: Q01DX009 (sc), vehicle: water, evaluated on day 19
  T/C: 112 % of control
[1]; dose: 4.0 mg/kg/injection, schedule: Q01DX009 (sc), vehicle: water
  survivor count: 1 of 8
[1]; dose: 8.0 mg/kg/injection, schedule: Q01DX009 (sc), vehicle: water, evaluated on day 7
  T/C: 66 and 104 % of control
[1]; dose: 8.0 mg/kg/injection, schedule: Q01DX009 (sc), vehicle: water, evaluated on day 19
  T/C: 106 % of control [7 of 8 alive]
[1]; dose: 8.0 mg/kg/injection, schedule: Q01DX009 (sc), vehicle: water
  survivor count: 0 of 8
[2]; dose: 1.0 mg/kg/injection, schedule: Q01DX009 (sc), vehicle: water, evaluated on day 19
  T/C: 125 % of control
[2]; dose: 4.0 mg/kg/injection, schedule: Q01DX001 (sc), vehicle: water, evaluated on day 7
  T/C: 140 % of control
[2]; dose: 4.0 mg/kg/injection, schedule: Q01DX001 (sc), vehicle: water, evaluated on day 24
  T/C: 144 % of control

## CN(N=O)C(N)=O
[1]; dose: 3.0 mg/kg/injection, schedule: Q01DX Z (sc), vehicle: saline
  survivor count: 2 of 10
[1]; dose: 5.0 mg/kg/injection, schedule: Q01DX Z (sc), vehicle: saline
  survivor count: 4 of 10
[1]; dose: 8.4 mg/kg/injection, schedule: Q01DX Z (sc), vehicle: saline
  survivor count: 4 of 10 and 5 of 10
[1]; dose: 14.0 mg/kg/injection, schedule: Q01DX Z (sc), vehicle: saline
  survivor count: 4 of 10 and 5 of 10
[1]; dose: 23.0 mg/kg/injection, schedule: Q01DX Z (sc), vehicle: saline
  survivor count: 5 of 10
[1]; dose: 48.0 mg/kg/injection, schedule: Q01DX009 (ip), vehicle: saline
  survivor count: 8 of 8
[1]; [3]
  survivor count: 6 of 10
[1]; dose: 240.0 mg/kg/injection, schedule: Q01DX Z (sc), vehicle: saline
  survivor count: 3 of 10
[2]; dose: 12.0 mg/kg/injection, schedule: Q01DX009 (ip), vehicle: saline
  T/C: 140 % of control [7 of 8 alive]
[2]; dose: 24.0 mg/kg/injection, schedule: Q01DX009 (ip), vehicle: saline
  T/C: 140 % of control
[2]; dose: 51.8 mg/kg/injection, schedule: Q01DX Z (sc), vehicle: saline
  T/C: 145 % of control [9 of 10 alive]
[2]; [3]
  T/C: 140 % of control [9 of 10 alive]
[2]; dose: 108.0 mg/kg/injection, schedule: Q01DX Z (sc), vehicle: saline
  T/C: 127 % of control
